Measured values: the supplement of paper PMC6078165
Values are relative to the signal before dosing, not to a vehicle control; the signal also falls without drug.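 Fibroblast labels denote human fibroblasts, mainly primary ones from uterus (C12385, HUF), lung (H6013), bone (Hs27A), adrenal (HADF) and skin (WS1), plus mammary HMF and breast cancer-associated Hs343T. Cancer cells are basal-like or mesenchymal-like triple-negative breast cancer lines. A hit is a response shift exceeding 3x replicate standard deviation. The tissue of the other fibroblasts is not given here.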

Tested on: BT20
Assay: relative JC-1 red fluorescence (viability) vs pre-drug, coculture with fibroblast (fraction); higher = more viable cancer cells
Conditions: 0.1 µM
Method: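 JC-1 labelled TNBC cells cocultured 1:1 (1,500 cells each) with CellTrace Violet stained primary or stromal fibroblasts in 384-well plates in FluoroBrite medium, treated with one of 42 anticancer drugs at 0.1, 1, 10 or 100 uM. JC-1 red fluorescence (mitochondrial integrity in cancer cells only) was read by plate reader every 8 h for 72 h. Values are normalised to each well's pre-drug value. The stock of one drug was tenfold lower, so its dose labels may be too high.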

CCC1=C[C@@H]2CN(C1)Cc1c([nH]c3ccccc13)[C@@](C(=O)OC)(c1cc3c(cc1OC)N(C)[C@H]1[C@@](O)(C(=O)OC)[C@H](OC(C)=O)[C@]4(CC)C=CCN5CC[C@]31[C@@H]54)C2 [Vinorelbine]
relative JC-1 red fluorescence
Conditions	8 h	16 h	24 h	32 h	40 h	48 h	56 h	64 h	72 h
coculture fibroblast: C12385	0.933	0.799	0.786	0.724	0.672	0.639	0.616	0.602	0.604
coculture fibroblast: H6013	0.966	0.889	0.872	0.83	0.801	0.795	0.793	0.785	0.773
coculture fibroblast: H6019	0.891	0.82	0.821	0.777	0.741	0.732	0.714	0.712	0.698
coculture fibroblast: H6076	0.9901	0.9226	0.846	0.825	0.7842	0.75	0.749	0.755	0.748
coculture fibroblast: H6231	0.788	0.9759	0.866	0.786	0.735	0.667	0.613	0.563	0.536
coculture fibroblast: HADF	0.854	0.869	0.8035	0.76254	0.708	0.6764	0.65	0.6402	0.6188
coculture fibroblast: HCFa	0.939	0.849	0.813	0.745	0.699	0.664	0.639	0.609	0.56
coculture fibroblast: HCPF	0.738	0.927	0.8392	0.779	0.719	0.68179	0.623	0.614	0.586
coculture fibroblast: HHSteC	0.961	0.906	0.8843	0.861	0.822	0.801	0.782	0.754	0.725
coculture fibroblast: HMF	0.964	0.835	0.752	0.709	0.648	0.589	0.552	0.535	0.522
coculture fibroblast: HPFa	0.955	0.91	0.898	0.795	0.7802	0.718	0.699	0.667	0.637
coculture fibroblast: HUF	0.9434	0.827	0.747	0.653	0.593	0.526	0.486	0.459	0.439
coculture fibroblast: Hs5	0.9779	0.883	0.804	0.742	0.696	0.662	0.633	0.6	0.573
coculture fibroblast: Hs27A	0.718	0.765	0.981	0.9483	0.922	0.923	0.921	0.908	0.88
coculture fibroblast: Hs343T	0.952	0.887	0.772	0.701	0.632	0.574	0.529	0.511	0.489
coculture fibroblast: WS1	0.902	0.76555	0.723	0.6533	0.5904	0.57	0.54	0.528	0.524
